Results as given in the supplement of paper PMC8728848.
The other results are listed elsewhere or left out.

Assays:
Assay in all cases: glycan array binding signal (z-score within array); higher = stronger binding
Conditions in all cases: glycan notation: IUPAC condensed, linker removed
[1] = target: GlcNAc(b1-2)[GlcNAc(b1-4)]Man(a1-3)[GlcNAc(b1-2)Man(a1-6)]Man(b1-4)GlcNAc(b1-4)GlcNAc
In short: (§1)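 The binding signal is a Z-score computed within each array. Data were drawn from 3228 arrays in the Consortium for Functional Glycomics database, restricted to those with a known protein sequence. Scores were averaged over arrays of the same protein sequence at different concentrations or buffers, and over linkers, and negative values can be taken as non-binding.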

GlcNAc(b1-3)Gal = target: GlcNAc(b1-3)Gal
In short: as §1

[2] = target: GlcNAc(b1-3)Gal(b1-3)GalNAc
In short: as §1

GlcNAc(b1-3)Gal(b1-4)Glc = target: GlcNAc(b1-3)Gal(b1-4)Glc
In short: as §1

[3] = target: GlcNAc(b1-3)Gal(b1-4)GlcNAc
In short: as §1

[4] = target: GlcNAc(b1-3)Gal(b1-4)GlcNAc(b1-3)Gal(b1-4)GlcNAc
In short: as §1

GlcNAc(b1-3)GalNAc = target: GlcNAc(b1-3)GalNAc
In short: as §1

GlcNAc(b1-3)Man = target: GlcNAc(b1-3)Man
In short: as §1

[5] = target: GlcNAc(b1-3)[GlcNAc(b1-4)][GlcNAc(b1-6)]GlcNAc
In short: as §1

[6] = target: GlcNAc(b1-3)[GlcNAc(b1-6)]Gal(b1-4)GlcNAc
In short: as §1

[7] = target: GlcNAc(b1-3)[GlcNAc(b1-6)]GalNAc
In short: as §1

[8] = target: GlcNAc(b1-4)Gal(b1-4)GlcNAc
In short: as §1

GlcNAc(b1-4)GlcNAc = target: GlcNAc(b1-4)GlcNAc
In short: as §1

[9] = target: GlcNAc(b1-4)GlcNAc(b1-4)GlcNAc
In short: as §1

[10] = target: GlcNAc(b1-4)GlcNAc(b1-4)GlcNAc(b1-4)GlcNAc(b1-4)GlcNAc
In short: as §1

[11] = target: GlcNAc(b1-4)GlcNAc(b1-4)GlcNAc(b1-4)GlcNAc(b1-4)GlcNAc(b1-4)GlcNAc
In short: as §1

[12] = target: GlcNAc(b1-4)[GlcNAc(b1-6)]GalNAc
In short: as §1

[13] = target: GlcNAc(b1-6)Gal(b1-4)GlcNAc
In short: as §1

GlcNAc(b1-6)GalNAc = target: GlcNAc(b1-6)GalNAc
In short: as §1

GlcNAc3Prop(b1-4)GlcNAc = target: GlcNAc3Prop(b1-4)GlcNAc
In short: as §1

[14] = target: GlcNAc6S(b1-3)Gal(b1-4)GlcNAc
In short: as §1

Kdn(a2-3)Gal(b1-3)GalNAc = target: Kdn(a2-3)Gal(b1-3)GalNAc
In short: as §1

Kdn(a2-3)Gal(b1-3)GlcNAc = target: Kdn(a2-3)Gal(b1-3)GlcNAc
In short: as §1

Kdn(a2-3)Gal(b1-4)Glc = target: Kdn(a2-3)Gal(b1-4)Glc
In short: as §1

Kdn(a2-3)Gal(b1-4)GlcNAc = target: Kdn(a2-3)Gal(b1-4)GlcNAc
In short: as §1

[15] = target: Kdn(a2-3)Gal(b1-4)[Fuc(a1-3)]GlcNAc
In short: as §1

Kdn(a2-6)Gal(b1-4)GlcNAc = target: Kdn(a2-6)Gal(b1-4)GlcNAc
In short: as §1

[16] = target: Man(a1-2)Man(a1-2)Man(a1-3)Man
In short: as §1

[17] = target: Man(a1-2)Man(a1-2)Man(a1-6)[Man(a1-3)]Man
In short: as §1

Man(a1-2)Man(a1-3)Man = target: Man(a1-2)Man(a1-3)Man
In short: as §1

[18] = target: Man(a1-2)Man(a1-3)[Man(a1-2)Man(a1-6)]Man
In short: as §1

[19] = target: Man(a1-2)Man(a1-3)[Man(a1-2)Man(a1-6)]Man(a1-6)[Man(a1-2)Man(a1-2)Man(a1-3)]Man
In short: as §1

[20] = target: Man(a1-2)Man(a1-3)[Man(a1-2)Man(a1-6)]Man(a1-6)[Man(a1-2)Man(a1-2)Man(a1-3)]Man(b1-4)GlcNAc(b1-4)GlcNAc
In short: as §1

[21] = target: Man(a1-2)Man(a1-3)[Man(a1-6)]Man(a1-6)[Man(a1-2)Man(a1-3)]Man(b1-4)GlcNAc(b1-4)GlcNAc
In short: as §1

[22] = target: Man(a1-2)Man(a1-6)[Man(a1-3)]Man(a1-6)[Man(a1-2)Man(a1-2)Man(a1-3)]Man
In short: as §1

[23] = target: Man(a1-2)Man(a1-6)[Man(a1-3)]Man(a1-6)[Man(a1-2)Man(a1-2)Man(a1-3)]Man(b1-4)GlcNAc(b1-4)GlcNAc
In short: as §1

Man(a1-3)[Man(a1-6)]Man = target: Man(a1-3)[Man(a1-6)]Man
In short: as §1

[24] = target: Man(a1-3)[Man(a1-6)]Man(a1-6)[Man(a1-2)Man(a1-3)]Man(b1-4)GlcNAc(b1-4)GlcNAc
In short: as §1

[25] = target: Man(a1-3)[Man(a1-6)]Man(a1-6)[Man(a1-3)]Man
In short: as §1

[26] = target: Man(a1-3)[Man(a1-6)]Man(a1-6)[Man(a1-3)]Man(b1-4)GlcNAc(b1-4)GlcNAc
In short: as §1

[27] = target: Man(a1-3)[Man(a1-6)]Man(b1-4)GlcNAc(b1-4)GlcNAc
In short: as §1

Man(a1-6)Man = target: Man(a1-6)Man
In short: as §1

Man(b1-4)GlcNAc = target: Man(b1-4)GlcNAc
In short: as §1

Neu5Ac(a2-3)Gal = target: Neu5Ac(a2-3)Gal
In short: as §1

[28] = target: Neu5Ac(a2-3)Gal(b1-3)GalNAc
In short: as §1

B1: SBD (Rhizopus oryzae), P07683 (protein)
chain: ASIPSSASVQLDSYNYDGSTFSGKIYVKNIAYSKKVTVVYADGSDNWNNNGNIIAASFSGPISGSNYEYWTFSASVKGIKEFYIKYEVSGKTYYDNNNSANYQVS
For B1, the “glycan array binding signal (z-score)” value [1] was -0.157, the “glycan array binding signal (z-score)” value (GlcNAc(b1-3)Gal) was -0.07 and the “glycan array binding signal (z-score)” value [2] was 0.153. For the same binder, the “glycan array binding signal (z-score)” value (GlcNAc(b1-3)Gal(b1-4)Glc) was -0.082, the “glycan array binding signal (z-score)” value [3] was -0.5 and the “glycan array binding signal (z-score)” value [4] was -0.27. The “glycan array binding signal (z-score)” value (GlcNAc(b1-3)GalNAc) was -0.262, the “glycan array binding signal (z-score)” value (GlcNAc(b1-3)Man) was 0.278 and the “glycan array binding signal (z-score)” value [5] was -0.005. The “glycan array binding signal (z-score)” value [6] was -0.133, the “glycan array binding signal (z-score)” value [7] was -0.507 and the “glycan array binding signal (z-score)” value [8] was 0.463. The “glycan array binding signal (z-score)” value (GlcNAc(b1-4)GlcNAc) was -0.363, the “glycan array binding signal (z-score)” value [9] was -0.537 and the “glycan array binding signal (z-score)” value [10] was -0.054. The “glycan array binding signal (z-score)” value [11] was -0.586, the “glycan array binding signal (z-score)” value [12] was 0.143 and the “glycan array binding signal (z-score)” value [13] was -0.42. For the same binder, the “glycan array binding signal (z-score)” value (GlcNAc(b1-6)GalNAc) was -1.11, the “glycan array binding signal (z-score)” value (GlcNAc3Prop(b1-4)GlcNAc) was 0.094 and the “glycan array binding signal (z-score)” value [14] was 0.627. For the same binder, the “glycan array binding signal (z-score)” value (Kdn(a2-3)Gal(b1-3)GalNAc) was 0.62, the “glycan array binding signal (z-score)” value (Kdn(a2-3)Gal(b1-3)GlcNAc) was 0.079 and the “glycan array binding signal (z-score)” value (Kdn(a2-3)Gal(b1-4)Glc) was -0.147. For the same binder, the “glycan array binding signal (z-score)” value (Kdn(a2-3)Gal(b1-4)GlcNAc) was 0.816, the “glycan array binding signal (z-score)” value [15] was -0.022 and the “glycan array binding signal (z-score)” value (Kdn(a2-6)Gal(b1-4)GlcNAc) was -0.009. For the same binder, the “glycan array binding signal (z-score)” value [16] was 5.61, the “glycan array binding signal (z-score)” value [17] was 1.47 and the “glycan array binding signal (z-score)” value (Man(a1-2)Man(a1-3)Man) was 0.497. For the same binder, the “glycan array binding signal (z-score)” value [18] was 0.064, the “glycan array binding signal (z-score)” value [19] was -0.385 and the “glycan array binding signal (z-score)” value [20] was -0.313. The “glycan array binding signal (z-score)” value [21] was -0.179, the “glycan array binding signal (z-score)” value [22] was -0.171 and the “glycan array binding signal (z-score)” value [23] was -0.011. For the same binder, the “glycan array binding signal (z-score)” value (Man(a1-3)[Man(a1-6)]Man) was -0.138, the “glycan array binding signal (z-score)” value [24] was -0.395 and the “glycan array binding signal (z-score)” value [25] was -0.347. The “glycan array binding signal (z-score)” value [26] was -0.313, the “glycan array binding signal (z-score)” value [27] was 0.028 and the “glycan array binding signal (z-score)” value (Man(a1-6)Man) was -0.179. For the same binder, the “glycan array binding signal (z-score)” value (Man(b1-4)GlcNAc) was -0.08, the “glycan array binding signal (z-score)” value (Neu5Ac(a2-3)Gal) was -0.41 and the “glycan array binding signal (z-score)” value [28] was -0.148.
